PubChem BioAssay AID1259308, NCATS | 2017
Aim: 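Candidate targets for better recombinant protein yield in mammalian cells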 (primary screen). System: human HEK293 embryonic kidney cells stably expressing firefly luciferase (HEK-CMV-Luc2-Hygro). Reagent: single siRNA against human genes, 0.8 pmol siRNA per well. Duration: 72 h. Detection: 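Luciferase light (ONE-Glo) measured on one replicate plate set and viability (CellTiter-Glo) on the other, scaled to a negative control siRNA, with robust z-scores and luciferase per cell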. Reading the numbers: total luciferase, z-score and total luciferase, % of control: higher = more reporter protein produced. Call rule: 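Active when the median/MAD z-score for overall luciferase is greater than 3; a gene was taken forward for validation with new siRNAs if at least two of its three siRNAs passed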. Meaning of the calls: active = raised luciferase; inactive = no rise.
In all, the deposit lists about 59,000 reagents; this is an unselected part. About 1,510 of all reagents (2.6%) were called active. 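Calls use total luciferase alone and ignore viability, so some active siRNAs may act by altering cell number.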 The numbers tell different reagents against one gene apart. Further read-outs or replicates are left out here.

Against LINC00602 #1 the deposit lists total luciferase, z-score -0.616; total luciferase, % of control 69.6; inactive. LINC00602 #2 gave total luciferase, z-score 0.819; total luciferase, % of control 98.2; inactive. Against LINC00602 #3, the entry reads total luciferase, z-score 0.751; total luciferase, % of control 96.8; inactive. CRMA #1 showed total luciferase, z-score 1.57; total luciferase, % of control 113; inactive. Silencing of CRMA #2 gave: total luciferase, z-score 1.44; total luciferase, % of control 110; inactive. Knock-down of CRMA #3 gave: total luciferase, z-score -0.591; total luciferase, % of control 70.1; inactive.

With knock-down of CAVIN4 #1, the record shows total luciferase, z-score 2.88; total luciferase, % of control 139; inactive. After knock-down of CAVIN4 #2, the screen gave total luciferase, z-score 0.997; total luciferase, % of control 102; inactive. With knock-down of CAVIN4 #3 the results were total luciferase, z-score 1.38; total luciferase, % of control 109; inactive. Silencing of PASK #1 came out at: total luciferase, z-score 1.25; total luciferase, % of control 107; inactive. With knock-down of PASK #2, the screen gave total luciferase, z-score -0.739; total luciferase, % of control 67.2; inactive. After knock-down of PASK #3 the results were total luciferase, z-score -0.251; total luciferase, % of control 76.9; inactive.

G6PC1 #1 showed total luciferase, z-score -0.893; total luciferase, % of control 64.1; inactive. G6PC1 #2 scored total luciferase, z-score -0.112; total luciferase, % of control 79.7; inactive. G6PC1 #3 scored total luciferase, z-score -0.921; total luciferase, % of control 63.6; inactive. Against LARGE1 #1, the entry reads total luciferase, z-score -1.66; total luciferase, % of control 49; inactive. After knock-down of LARGE1 #2, the record shows total luciferase, z-score 0.217; total luciferase, % of control 86.2; inactive. LARGE1 #3 gave total luciferase, z-score -1.41; total luciferase, % of control 53.9; inactive.

Knock-down of S100Z #1 gave: total luciferase, z-score 0.955; total luciferase, % of control 101; inactive. S100Z #2 scored total luciferase, z-score 1.46; total luciferase, % of control 111; inactive. After knock-down of S100Z #3, the screen gave total luciferase, z-score 0.191; total luciferase, % of control 85.7; inactive. TOMM70 #1 showed total luciferase, z-score 0.455; total luciferase, % of control 90.9; inactive. Against TOMM70 #2, the entry reads total luciferase, z-score 1.02; total luciferase, % of control 102; inactive. Against TOMM70 #3, the values are total luciferase, z-score -0.123; total luciferase, % of control 79.4; inactive.

With knock-down of CLEC3A #1, the record shows total luciferase, z-score 1.16; total luciferase, % of control 105; inactive. With knock-down of CLEC3A #2, the screen gave total luciferase, z-score 0.835; total luciferase, % of control 98.5; inactive. CLEC3A #3 gave total luciferase, z-score 0.639; total luciferase, % of control 94.6; inactive. For EIF2B3 #1 the deposit lists total luciferase, z-score -0.282; total luciferase, % of control 76.3; inactive. For EIF2B3 #2 the deposit lists total luciferase, z-score 0.793; total luciferase, % of control 97.7; inactive. Silencing of EIF2B3 #3 resulted in: total luciferase, z-score -1.46; total luciferase, % of control 52.8; inactive.

Silencing of ZNF74 #1 came out at: total luciferase, z-score -0.141; total luciferase, % of control 79.1; inactive. For ZNF74 #2, the values are total luciferase, z-score -0.229; total luciferase, % of control 77.3; inactive. After knock-down of ZNF74 #3 the results were total luciferase, z-score -0.621; total luciferase, % of control 69.5; inactive.

2 neighbouring reagents from above, quoted:
CRMA #1 → total luciferase, z-score: 1.57; total luciferase, % of control: 113; activity call: inactive
CRMA #2 → total luciferase, z-score: 1.44; total luciferase, % of control: 110; activity call: inactive
